How the values were obtained:
[1] = Light absorption and fluorescence of dyes and kaolin powders; format: physicochemical; conditions: product deposited on kaolin
[2] = unmodified precursor dye; cited from earlier work

With `C=Cc1ccc(Nc2nc(OCCCCCCCC)nc(Oc3ccc(C(c4ccccc4)(c4ccccc4)c4ccccc4)cc3)n2)cc1` [Compound II] the “fluorescence of the kaolin powder under a UV 254 lamp” value [1] was “fluoresces blue”.
In the case of `CC1CCC(Oc2nc(Oc3ccc4c(-c5ccccc5C(=O)O)c5ccc(=O)cc-5oc4c3)nc(OC3CCC(C)CC3C(C)C)n2)C(C(C)C)C1` (stereo not shown) [Compound IV], the “fluorescence of the kaolin powder under a UV 254 lamp” value [1] is reported as “fluoresces yellow-green”.
For `Cc1cc2nc3ccc(N(C)C)cc3[s+]c2cc1N.[Cl-]` [toluidine blue O], the “precursor dyes fluoresce in the red end of the spectrum” value [2] is given as 660-700 nm.
In the case of `N=C1C=CC(=C(c2ccc(N)cc2)c2ccc(N)cc2)C=C1` [pararosaniline], the “precursor dyes fluoresce in the red end of the spectrum” value [2] is listed as 604-627 nm.
